Measured values as given in patent US20170355953A1 (OSAKA UNIVERSITY, published 2017).

Target: Wnt5a fused with a TARGET tag at the N-terminus (W-Wnt5a)
Assay: co-purification with W-Wnt5a on P20.1-sepharose, SDS-PAGE

binding: binds
B1: bovine afamin (from fetal calf serum in the culture medium) (protein, UniProt G3MYZ3 22-604, looked up)
chain: LPTQPQDVDDVRITQKFIDDNIGYITIIAFAQYIQEASFEEVEMLVKAMTEYRDKCLADRTLPECSKLANEVLLENICAMEGLPQKYNFSHCCHKVDFERRLCFFHNKKADIGLLPPLPTLDPEEKCQTYKNNRESFLNNYVYEVSRRNPFVFAPTLLTVAARFEEMTKTCCEEQEKANCFQTKAEPFIYYLKALSSYQKNACRALMKFGRQILQSINIAILSQKFPKIGFKQLTSLLEDVSSKYDGCCEGDVVQCIRGRSKVMSHICSKQDSISSKIKDCCEKKIPERGECIIYSNKDDRPNDLSLREAKFIESDNVCEKRDADQANFMAEFLYEYSRRHPELSTPELLRIAKVYKDLLKECCNMENPPECYRHAENRFNETTEKSLKIVQRECEHFQNLGKDDLKYHYLINLTKLAPQLSTEELTFLGKEMVMALTTCCTLSEEFACVDNLVDLVLGELCGINENRNINPAVDHCCKTNFAFRRSCFESLEADKTYVPPSTSQGLFTFHADLCQAHNEELQRKKDRFLVNLVKLKPELAGEELWSLLADFTNVVEKCCKAQEPEACFKEESPKLAAKSQAA

No constants are given. Whether binding was seen depends on the method and setting. Binding seen in cells or lysates may run through a third protein. Binding calls can cover weak binding; strength is not graded here.
